# PubChem BioAssay AID1224831 – NIAID – 2016
# Screen: 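Retesting screen hits on the TLR4-driven TNF response with six separate siRNAs each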 (follow-up of hits)
# Cell system: human THP-1 B5 monocytic leukaemia cells carrying a TNF promoter luciferase reporter, made macrophage-like with PMA
# Reagent: single siRNA against human genes, 50 nM
# Duration: about 68 h of knock-down, then 4 h LPS
# Treatment: LPS (Salmonella minnesota, TLR-grade) at 10 ng/ml for 4 h; PMA 5 ng/ml present during knock-down
# Measured: 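TNF promoter reporter read as dual luciferase ratio after 4 h LPS, normalised per plate to its median, given as replicate mean robust z-score per siRNA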
# Reading the numbers: TNF reporter z-score: higher = stronger LPS-induced TNF reporter signal; z-score, median over gene's siRNAs: higher = stronger TNF reporter signal across the gene's siRNAs
# Active means: 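Two-sided call: reduced or raised TNF reporter signal counts as active once mean z reaches about -1 or below, or about 1.5 or above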
# Meaning of the calls: active = changed TNF reporter (either direction); inactive = little change
# Here is one part, drawn at random, of about 3,500 deposited reagents. 731 of all reagents (21%) count as active. 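Active means either lowered or raised reporter signal; the gene-median score did not drive the per-siRNA calls.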 The numbers tell different reagents against one gene apart.
"TNF reporter z-score, replicate mean","z-score, median over gene's siRNAs",call,Target gene,reagent
1.74,0.6,active,DEFA5,1
-0.78,0.6,inactive,DEFA5,2
2.06,0.6,active,DEFA5,3
0.01,0.6,inactive,DEFA5,4
-0.98,0.6,inactive,DEFA5,5
1.19,0.6,inactive,DEFA5,6
-1.01,-0.75,active,ALS2,1
-0.49,-0.75,inactive,ALS2,2
-1.41,-0.75,active,ALS2,3
0.33,-0.75,inactive,ALS2,4
-1.01,-0.75,active,ALS2,5
-0.28,-0.75,inactive,ALS2,6
-3.11,-2.19,active,PCF11,1
-2.09,-2.19,active,PCF11,2
-3.2,-2.19,active,PCF11,3
-1.92,-2.19,active,PCF11,4
-1.6,-2.19,active,PCF11,5
-2.28,-2.19,active,PCF11,6
2.38,-0.1,active,HMGN2,1
-0.09,-0.1,inactive,HMGN2,2
-0.11,-0.1,inactive,HMGN2,3
0.26,-0.1,inactive,HMGN2,4
-0.83,-0.1,inactive,HMGN2,5
-0.12,-0.1,inactive,HMGN2,6
-0.01,0.25,inactive,LCN8,1
0.51,0.25,inactive,LCN8,2
0.63,0.25,inactive,LCN8,3
-0.22,0.25,inactive,LCN8,4
-0.98,0.25,inactive,LCN8,5
0.55,0.25,inactive,LCN8,6
0.6,0.27,inactive,C8orf74,1
-0.67,0.27,inactive,C8orf74,2
0.54,0.27,inactive,C8orf74,3
-0.38,0.27,inactive,C8orf74,4
0.14,0.27,inactive,C8orf74,5
0.4,0.27,inactive,C8orf74,6
-0.34,-0.07,inactive,ZNF567,1
0.29,-0.07,inactive,ZNF567,2
1.55,-0.07,active,ZNF567,3
-0.81,-0.07,inactive,ZNF567,4
-0.95,-0.07,inactive,ZNF567,5
0.2,-0.07,inactive,ZNF567,6
-0.2,-0.27,inactive,PSMD7,1
-0.17,-0.27,inactive,PSMD7,2
-0.34,-0.27,inactive,PSMD7,3
-1.81,-0.27,active,PSMD7,4
-0.64,-0.27,inactive,PSMD7,5
0.23,-0.27,inactive,PSMD7,6
-0.97,-0.085,inactive,PACSIN1,1
-0.51,-0.085,inactive,PACSIN1,2
-0.12,-0.085,inactive,PACSIN1,3
-0.05,-0.085,inactive,PACSIN1,4
0.24,-0.085,inactive,PACSIN1,5
0.37,-0.085,inactive,PACSIN1,6
0.43,-0.815,inactive,CCDC140,1
-1.08,-0.815,active,CCDC140,2
-1.65,-0.815,active,CCDC140,3
-1.2,-0.815,active,CCDC140,4
-0.35,-0.815,inactive,CCDC140,5
-0.55,-0.815,inactive,CCDC140,6
-0.2,1.66,inactive,IPO13,1
2.35,1.66,active,IPO13,2
1.83,1.66,active,IPO13,3
1.49,1.66,inactive,IPO13,4
-0.64,1.66,inactive,IPO13,5
2.17,1.66,active,IPO13,6
0,-0.415,inactive,ATF1,1
-0.48,-0.415,inactive,ATF1,2
-0.4,-0.415,inactive,ATF1,3
-1.31,-0.415,active,ATF1,4
-0.25,-0.415,inactive,ATF1,5
-0.43,-0.415,inactive,ATF1,6
-0.59,-0.315,inactive,MAD2L2,1
-0.91,-0.315,inactive,MAD2L2,2
0.94,-0.315,inactive,MAD2L2,3
-0.29,-0.315,inactive,MAD2L2,4
-0.29,-0.315,inactive,MAD2L2,5
-0.34,-0.315,inactive,MAD2L2,6
3.67,0.76,active,MTBP,1
1.04,0.76,inactive,MTBP,2
-0.78,0.76,inactive,MTBP,3
0.47,0.76,inactive,MTBP,4
0.48,0.76,inactive,MTBP,5
1.07,0.76,inactive,MTBP,6
-2,0.02,active,CREB1,1
0.67,0.02,inactive,CREB1,2
0.08,0.02,inactive,CREB1,3
-0.04,0.02,inactive,CREB1,4
-0.36,0.02,inactive,CREB1,5
2.64,0.02,active,CREB1,6
1.32,0.255,inactive,SELL,1
0.03,0.255,inactive,SELL,2
0.48,0.255,inactive,SELL,3
-0.36,0.255,inactive,SELL,4
1.98,0.255,active,SELL,5
-0.29,0.255,inactive,SELL,6
-0.17,-0.465,inactive,VGLL1,1
-0.78,-0.465,inactive,VGLL1,2
-0.3,-0.465,inactive,VGLL1,3
-0.63,-0.465,inactive,VGLL1,4
-0.75,-0.465,inactive,VGLL1,5
0.75,-0.465,inactive,VGLL1,6
0.01,0.405,inactive,LIAT1,1
0.69,0.405,inactive,LIAT1,2
0.61,0.405,inactive,LIAT1,3
0.2,0.405,inactive,LIAT1,4
-0.91,0.405,inactive,LIAT1,5
1.95,0.405,active,LIAT1,6

In a second layout: results already given
| TNF reporter z-score, replicate mean | z-score, median over gene's siRNAs | call | Target gene | reagent |
| --- | --- | --- | --- | --- |
| -0.64 | 1.66 | inactive | IPO13 | 5 |
| 2.17 | 1.66 | active | IPO13 | 6 |
| 0 | -0.415 | inactive | ATF1 | 1 |
| -0.48 | -0.415 | inactive | ATF1 | 2 |
| -0.4 | -0.415 | inactive | ATF1 | 3 |
| -1.31 | -0.415 | active | ATF1 | 4 |
| -0.25 | -0.415 | inactive | ATF1 | 5 |
| -0.43 | -0.415 | inactive | ATF1 | 6 |
| -0.59 | -0.315 | inactive | MAD2L2 | 1 |
| -0.91 | -0.315 | inactive | MAD2L2 | 2 |
| 0.94 | -0.315 | inactive | MAD2L2 | 3 |
| -0.29 | -0.315 | inactive | MAD2L2 | 4 |
| -0.29 | -0.315 | inactive | MAD2L2 | 5 |
